The values that follow come from US20220193241A1, “AGENT TARGETING DOUBLE-MEMBRANE ORGANELLE DNA” (CHIBA-PREFECTURE, priority 2019, published 2022).

This series relates to mitochondria. Kind of series: Intracellular localization of pyridinium-indole derivatives with or without TPP. The format is cell-based. Conditions: 2 hours and 48 hours after treatment.

Regarding `C[n+]1ccc(/C=C/c2cn(CCCCC(=O)O)c3ccccc23)cc1` [pyridinium-indole derivative], the colocalization with mitochondria result is on record as “not found”.
Consider `O=C(O)CCCCn1cc(/C=C/c2cc[n+](CCCC[P+](c3ccccc3)(c3ccccc3)c3ccccc3)cc2)c2ccccc21` [pyridinium-indole derivative-TPP], for which the colocalization with mitochondria entry was “colocalized with mitochondria”.
